Measurements reported in PubChem BioAssay AID1259424 (University of Nebraska Medical Center, 2018).
The whole screen tested about 14,000 reagents; shown is a part drawn at random. 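Higher correlation or smaller distance means closer resemblance to KSR1 loss; control wells, including KSR1 knockdowns, recur on many plates.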 A reagent listed more than once was tested more than once; the source does not tell the runs apart. Further read-outs or replicates are left out here. Not given: the time to read-out.

- Screen: 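Seek colon cancer survival genes behaving like KSR1, using a six-gene signature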 (primary screen)
- Cell system: human HCT116 colon cancer cells
- Knock-down reagent: siRNA pool against human genes, 50 nM
- Measured: 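Log2 levels of six mRNAs (branched-DNA multiplex), adjusted by two reference genes and the non-targeting median, then scored against the average KSR1 knockdown pattern as Pearson r and euclidean distance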
- Scale: mean correlation with KSR1 profile and KSR1 correlation: higher = expression change more like KSR1 knockdown; mean distance from KSR1 profile: higher = expression change less like KSR1 knockdown

gene,mean correlation with KSR1 profile,mean distance from KSR1 profile,"KSR1 correlation, replicate 1"
ADI1 (acireductone dioxygenase 1),-0.0622,2.38,-0.212
CGB2 (chorionic gonadotropin subunit beta 2),0.17,2.28,0.338
THOC1 (THO complex subunit 1),-0.26,2.61,-0.263
ZNF234 (zinc finger protein 234),-0.296,1.5,-0.358
IFNLR1 (interferon lambda receptor 1),0.0354,1.79,-0.0525
TAF12 (TATA-box binding protein associated factor 12),-0.564,2.37,-0.437
ING3 (inhibitor of growth family member 3),0.00759,2.64,0.111
GNAT1 (G protein subunit alpha transducin 1),0.76,1.42,0.611
SLC28A1,0.38,1.86,0.48
PLXNB3 (plexin B3),-0.63,2.22,-0.639
EBP (EBP cholestenol delta-isomerase),0.115,2.68,0.11
EPX (eosinophil peroxidase),-0.957,1.32,-0.734
SORT1 (sortilin 1),0.726,1.39,0.799
KLHL36 (kelch like family member 36),0.205,2.19,0.28
SMC4 (structural maintenance of chromosomes 4),0.541,1.89,0.313
NPHP1 (nephrocystin 1),-0.472,2.87,-0.402
MRPL20 (mitochondrial ribosomal protein L20),0.388,1.56,0.357
"AHSA2P (activator of HSP90 ATPase homolog 2, pseudogene)",-0.221,1.71,0.108
TRAPPC4 (trafficking protein particle complex subunit 4),-0.492,2.23,-0.54
PEX2 (peroxisomal biogenesis factor 2),0.116,1.29,-0.147
TP53 (tumor protein p53),0.62,0.809,0.727
ZNF250 (zinc finger protein 250),0.0541,2.48,0.0977
"ANPEP (alanyl aminopeptidase, membrane)",-0.376,2.4,-0.471
KCNJ16 (potassium inwardly rectifying channel subfamily J member 16),-0.0927,1.39,-0.653
REV1 (REV1 DNA directed polymerase),0.239,1.82,0.256
SRSF4 (serine and arginine rich splicing factor 4),0.713,0.805,0.749
"MAS1L (MAS1 proto-oncogene like, G protein-coupled receptor)",0.849,2.07,0.781
HAUS3 (HAUS augmin like complex subunit 3),0.446,1.45,0.583
HMOX1 (heme oxygenase 1),0.0549,2.03,0.0702
ADARB1 (adenosine deaminase RNA specific B1),-0.371,2.52,-0.366
"RAB28 (RAB28, member RAS oncogene family)",0.699,0.622,0.419
SLC35E1,0.23,2.6,0.226

Next part (2 carried over from the part before).
gene,mean correlation with KSR1 profile,mean distance from KSR1 profile,"KSR1 correlation, replicate 1"
"RAB28 (RAB28, member RAS oncogene family)",0.699,0.622,0.419
SLC35E1,0.23,2.6,0.226
TRPM8,0.152,2.2,0.312
NRM (nurim),-0.251,2.55,-0.0456
LALBA (lactalbumin alpha),0.357,1.16,0.0444
N4BP2L2 (NEDD4 binding protein 2 like 2),-0.706,5.34,-0.653
KPNA1 (karyopherin subunit alpha 1),-0.295,2.35,-0.312
NMUR2 (neuromedin U receptor 2),0.248,1.79,0.253
HPS5 (HPS5 biogenesis of lysosomal organelles complex 2 subunit 2),-0.123,2.25,-0.197
MTARC2 (mitochondrial amidoxime reducing component 2),-0.826,1.94,-0.914
RIMS1 (regulating synaptic membrane exocytosis 1),-0.00732,1.76,0.18
PIGP (phosphatidylinositol glycan anchor biosynthesis class P),-0.451,2.04,-0.408
RYR3 (ryanodine receptor 3),-0.186,3.2,-0.0742
LMX1B (LIM homeobox transcription factor 1 beta),0.0466,1.68,0.0963
SLC45A4,0.144,1.58,-0.00206
EPHX1 (epoxide hydrolase 1),0.472,1.79,0.362
ACVR1 (activin A receptor type 1),-0.214,2.9,-0.203
GRAMD1A (GRAM domain containing 1A),-0.612,3.14,-0.576
SOX13 (SRY-box transcription factor 13),-0.756,2.38,-0.731
ILF2 (interleukin enhancer binding factor 2),-0.14,1.87,0.106
WSB2 (WD repeat and SOCS box containing 2),-0.408,1.53,-0.651
CSNK1G1 (casein kinase 1 gamma 1),-0.377,3.21,-0.314
MRPS27 (mitochondrial ribosomal protein S27),-0.18,3.09,-0.0678
ZNF644 (zinc finger protein 644),0.573,1.26,0.556
ZNF644 (zinc finger protein 644),-0.017,2.48,-0.7
ZNF343 (zinc finger protein 343),-0.235,2.7,-0.12
RANBP2 (RAN binding protein 2),-0.0463,1.58,-0.253
THRAP3 (thyroid hormone receptor associated protein 3),0.0971,1.54,0.208
BCL3 (BCL3 transcription coactivator),0.136,2.38,0.12
SLC4A3,-0.346,2.1,-0.08
ZNF76 (zinc finger protein 76),-0.109,1.93,-0.395
SLC25A10,0.281,1.67,0.369
INTS12 (integrator complex subunit 12),-0.457,3.89,-0.399
